Measured values taken from the M2OR odorant receptor database.
Only a part is listed here, and it is no random draw. The calls were merged from several studies; some rest on single wells. The list shows a part of the results.

Sequences of proteins named here, by UniProt entry; tags and fusion partners are left off. A line that says so, or that is headed by a name, gives the form on record, which may keep a tag or linker.
UniProt Q924X8, as listed by the source: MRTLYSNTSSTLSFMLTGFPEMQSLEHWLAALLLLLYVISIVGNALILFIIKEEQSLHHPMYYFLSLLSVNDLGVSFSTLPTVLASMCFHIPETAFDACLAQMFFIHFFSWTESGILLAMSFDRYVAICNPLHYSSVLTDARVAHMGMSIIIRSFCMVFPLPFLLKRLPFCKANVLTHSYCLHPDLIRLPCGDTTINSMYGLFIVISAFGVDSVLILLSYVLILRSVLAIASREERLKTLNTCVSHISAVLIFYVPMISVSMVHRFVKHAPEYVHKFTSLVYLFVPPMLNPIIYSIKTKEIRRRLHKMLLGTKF

Assays:
Settings in all cases: stereoisomer not certain
UniProt Q8VGU3 = biological target: T1, UniProt Q8VGU3
T1 sequence (whole entry): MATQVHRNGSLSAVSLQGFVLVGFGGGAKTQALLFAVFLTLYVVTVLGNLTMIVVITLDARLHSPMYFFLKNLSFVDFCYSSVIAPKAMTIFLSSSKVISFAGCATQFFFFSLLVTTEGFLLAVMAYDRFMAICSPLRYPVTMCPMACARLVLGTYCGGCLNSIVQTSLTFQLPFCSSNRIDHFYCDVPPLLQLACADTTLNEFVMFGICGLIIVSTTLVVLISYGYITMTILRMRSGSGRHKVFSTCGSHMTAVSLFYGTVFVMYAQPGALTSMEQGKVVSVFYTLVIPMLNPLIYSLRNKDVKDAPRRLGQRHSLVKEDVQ
Summary of the method: (§1)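 Each receptor–molecule pair is labelled responsive or non-responsive (inactive) according to whether the original authors judged the measured signal statistically different from baseline. The data were taken from the main text and supplementary material of published papers and checked for typos and inconsistencies. Assay methods differed by source, with transient luciferase assays in mammalian cell lines being common.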

UniProt Q8VGV7 = biological target: T2, UniProt Q8VGV7
T2 sequence (whole entry): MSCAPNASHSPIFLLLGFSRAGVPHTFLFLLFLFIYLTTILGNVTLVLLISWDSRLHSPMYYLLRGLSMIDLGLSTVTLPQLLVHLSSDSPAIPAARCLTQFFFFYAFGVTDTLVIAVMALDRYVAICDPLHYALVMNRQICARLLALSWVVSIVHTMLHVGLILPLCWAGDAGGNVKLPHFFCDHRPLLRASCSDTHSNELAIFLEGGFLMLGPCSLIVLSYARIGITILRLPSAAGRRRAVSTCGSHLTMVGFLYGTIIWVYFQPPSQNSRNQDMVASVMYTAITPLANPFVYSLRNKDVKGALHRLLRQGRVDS
Summary of the method: as §1

UniProt Q8VGX3 = biological target: T3, UniProt Q8VGX3
T3 sequence (whole entry): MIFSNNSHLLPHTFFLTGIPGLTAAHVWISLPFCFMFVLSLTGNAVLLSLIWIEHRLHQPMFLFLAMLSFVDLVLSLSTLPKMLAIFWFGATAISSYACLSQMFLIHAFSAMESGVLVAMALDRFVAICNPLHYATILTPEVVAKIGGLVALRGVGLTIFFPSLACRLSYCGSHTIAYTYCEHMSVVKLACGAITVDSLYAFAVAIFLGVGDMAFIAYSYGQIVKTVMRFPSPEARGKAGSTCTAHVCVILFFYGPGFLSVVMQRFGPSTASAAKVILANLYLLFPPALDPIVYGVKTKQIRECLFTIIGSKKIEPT
Summary of the method: as §1

UniProt Q8VGX5 = biological target: T4, UniProt Q8VGX5
T4 sequence (whole entry): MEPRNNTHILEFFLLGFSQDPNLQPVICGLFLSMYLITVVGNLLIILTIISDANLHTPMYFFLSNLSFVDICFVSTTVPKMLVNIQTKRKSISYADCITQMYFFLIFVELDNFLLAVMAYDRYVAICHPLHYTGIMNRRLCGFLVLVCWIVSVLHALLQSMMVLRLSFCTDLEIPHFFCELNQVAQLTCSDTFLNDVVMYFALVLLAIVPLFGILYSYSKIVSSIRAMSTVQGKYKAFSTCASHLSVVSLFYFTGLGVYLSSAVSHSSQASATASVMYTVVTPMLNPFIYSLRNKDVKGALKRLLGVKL
Summary of the method: as §1

UniProt Q8VGZ2 = biological target: T5, UniProt Q8VGZ2
T5 sequence (whole entry): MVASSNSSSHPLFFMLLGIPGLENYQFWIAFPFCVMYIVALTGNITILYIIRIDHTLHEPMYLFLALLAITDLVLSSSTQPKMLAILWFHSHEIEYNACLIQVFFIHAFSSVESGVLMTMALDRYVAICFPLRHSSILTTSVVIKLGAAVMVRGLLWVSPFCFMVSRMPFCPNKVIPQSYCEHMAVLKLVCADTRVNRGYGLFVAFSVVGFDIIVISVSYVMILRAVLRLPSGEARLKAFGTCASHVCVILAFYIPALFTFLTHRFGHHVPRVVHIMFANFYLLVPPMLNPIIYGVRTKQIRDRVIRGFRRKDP
Summary of the method: as §1

UniProt Q8VGZ7 = biological target: T6, UniProt Q8VGZ7
T6 sequence (whole entry): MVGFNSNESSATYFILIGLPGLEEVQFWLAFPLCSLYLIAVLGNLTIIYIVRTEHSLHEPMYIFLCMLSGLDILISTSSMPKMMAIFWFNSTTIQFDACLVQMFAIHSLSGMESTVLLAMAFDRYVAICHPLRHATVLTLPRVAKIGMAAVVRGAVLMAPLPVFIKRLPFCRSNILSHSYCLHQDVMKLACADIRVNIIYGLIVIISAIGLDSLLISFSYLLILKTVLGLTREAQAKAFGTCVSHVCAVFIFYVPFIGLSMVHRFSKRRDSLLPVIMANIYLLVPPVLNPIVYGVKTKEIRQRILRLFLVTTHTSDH
Summary of the method: as §1

UniProt Q8VH16 = biological target: T7, UniProt Q8VH16
T7 sequence (whole entry): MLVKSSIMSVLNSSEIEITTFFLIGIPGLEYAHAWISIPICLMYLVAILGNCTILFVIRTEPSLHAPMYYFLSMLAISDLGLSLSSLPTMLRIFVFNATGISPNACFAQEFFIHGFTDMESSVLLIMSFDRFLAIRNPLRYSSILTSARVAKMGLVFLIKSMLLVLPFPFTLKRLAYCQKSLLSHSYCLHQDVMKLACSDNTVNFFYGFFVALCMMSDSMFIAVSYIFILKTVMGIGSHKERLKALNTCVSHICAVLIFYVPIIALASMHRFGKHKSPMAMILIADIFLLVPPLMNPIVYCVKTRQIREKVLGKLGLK
Summary of the method: as §1

UniProt Q8VH20 = biological target: T8, UniProt Q8VH20
T8 sequence (whole entry): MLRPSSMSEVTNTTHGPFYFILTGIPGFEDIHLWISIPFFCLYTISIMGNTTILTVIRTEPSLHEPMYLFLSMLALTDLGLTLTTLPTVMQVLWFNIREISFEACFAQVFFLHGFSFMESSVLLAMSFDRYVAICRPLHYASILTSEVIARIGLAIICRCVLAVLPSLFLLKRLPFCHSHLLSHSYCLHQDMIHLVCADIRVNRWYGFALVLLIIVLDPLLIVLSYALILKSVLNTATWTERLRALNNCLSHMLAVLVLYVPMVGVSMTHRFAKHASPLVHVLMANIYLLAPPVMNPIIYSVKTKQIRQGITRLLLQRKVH
Summary of the method: as §1

UniProt Q8VH21 = biological target: T9, UniProt Q8VH21
T9 sequence (whole entry): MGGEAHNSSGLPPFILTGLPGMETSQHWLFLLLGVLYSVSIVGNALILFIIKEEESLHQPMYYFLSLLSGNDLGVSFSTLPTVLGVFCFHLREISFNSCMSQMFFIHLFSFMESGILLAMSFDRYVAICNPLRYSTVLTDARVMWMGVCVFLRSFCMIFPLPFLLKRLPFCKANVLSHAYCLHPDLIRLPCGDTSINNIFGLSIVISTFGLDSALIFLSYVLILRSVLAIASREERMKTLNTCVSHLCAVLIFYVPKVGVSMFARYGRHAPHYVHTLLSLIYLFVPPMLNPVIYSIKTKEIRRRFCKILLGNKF
Summary of the method: as §1

UniProt Q924H8 = biological target: T10, UniProt Q924H8
T10 sequence (whole entry): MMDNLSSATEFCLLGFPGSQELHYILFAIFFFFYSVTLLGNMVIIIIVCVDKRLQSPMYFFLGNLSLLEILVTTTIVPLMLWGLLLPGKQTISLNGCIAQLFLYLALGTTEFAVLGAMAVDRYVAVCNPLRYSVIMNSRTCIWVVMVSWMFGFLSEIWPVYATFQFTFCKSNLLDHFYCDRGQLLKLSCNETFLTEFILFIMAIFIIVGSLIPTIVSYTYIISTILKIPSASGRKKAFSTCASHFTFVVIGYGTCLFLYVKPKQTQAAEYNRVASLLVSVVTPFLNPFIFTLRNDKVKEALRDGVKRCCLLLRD
Summary of the method: as §1

UniProt Q8VGW5 = biological target: T11, UniProt Q8VGW5
T11 sequence (whole entry): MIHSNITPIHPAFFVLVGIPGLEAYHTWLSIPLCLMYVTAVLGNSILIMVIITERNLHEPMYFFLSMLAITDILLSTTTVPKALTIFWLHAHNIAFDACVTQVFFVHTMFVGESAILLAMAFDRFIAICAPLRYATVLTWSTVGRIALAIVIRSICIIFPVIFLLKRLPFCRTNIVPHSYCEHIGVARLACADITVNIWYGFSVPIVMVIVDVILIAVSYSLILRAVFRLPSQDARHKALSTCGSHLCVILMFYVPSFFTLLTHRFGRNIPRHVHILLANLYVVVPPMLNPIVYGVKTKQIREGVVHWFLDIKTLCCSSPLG
Summary of the method: as §1

UniProt Q8VH18 = biological target: T12, UniProt Q8VH18
T12 sequence (whole entry): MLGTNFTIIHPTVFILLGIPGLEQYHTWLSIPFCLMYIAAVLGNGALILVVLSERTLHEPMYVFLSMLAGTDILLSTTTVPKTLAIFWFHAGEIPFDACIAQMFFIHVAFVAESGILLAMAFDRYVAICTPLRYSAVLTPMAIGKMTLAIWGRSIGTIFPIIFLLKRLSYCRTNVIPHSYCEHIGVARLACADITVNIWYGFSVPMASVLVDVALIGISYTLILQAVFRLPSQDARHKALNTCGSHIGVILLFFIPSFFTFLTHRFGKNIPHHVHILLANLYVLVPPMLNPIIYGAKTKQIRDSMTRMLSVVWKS
Summary of the method: as §1

UniProt Q8VGT4 = biological target: T13, UniProt Q8VGT4
T13 sequence (whole entry): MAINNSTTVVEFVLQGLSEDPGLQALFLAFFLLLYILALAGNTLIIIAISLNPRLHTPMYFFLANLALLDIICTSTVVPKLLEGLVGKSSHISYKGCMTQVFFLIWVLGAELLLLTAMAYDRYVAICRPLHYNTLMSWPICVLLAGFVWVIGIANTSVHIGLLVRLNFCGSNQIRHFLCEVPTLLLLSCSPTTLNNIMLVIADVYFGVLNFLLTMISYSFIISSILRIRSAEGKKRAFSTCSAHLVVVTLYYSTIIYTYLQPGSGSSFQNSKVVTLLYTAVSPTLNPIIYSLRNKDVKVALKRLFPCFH
Summary of the method: as §1

UniProt Q8VGV1 = biological target: T14, UniProt Q8VGV1
T14 sequence (whole entry): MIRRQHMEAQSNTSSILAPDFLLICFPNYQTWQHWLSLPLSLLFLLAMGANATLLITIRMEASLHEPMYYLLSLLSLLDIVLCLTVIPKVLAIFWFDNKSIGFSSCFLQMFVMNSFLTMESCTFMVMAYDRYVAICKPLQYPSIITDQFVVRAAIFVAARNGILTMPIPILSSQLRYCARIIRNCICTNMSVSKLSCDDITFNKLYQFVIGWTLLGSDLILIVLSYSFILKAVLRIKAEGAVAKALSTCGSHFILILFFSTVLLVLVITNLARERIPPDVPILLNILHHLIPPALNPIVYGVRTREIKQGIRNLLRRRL
Summary of the method: as §1

UniProt Q8VGX8 = biological target: T15, UniProt Q8VGX8
T15 sequence (whole entry): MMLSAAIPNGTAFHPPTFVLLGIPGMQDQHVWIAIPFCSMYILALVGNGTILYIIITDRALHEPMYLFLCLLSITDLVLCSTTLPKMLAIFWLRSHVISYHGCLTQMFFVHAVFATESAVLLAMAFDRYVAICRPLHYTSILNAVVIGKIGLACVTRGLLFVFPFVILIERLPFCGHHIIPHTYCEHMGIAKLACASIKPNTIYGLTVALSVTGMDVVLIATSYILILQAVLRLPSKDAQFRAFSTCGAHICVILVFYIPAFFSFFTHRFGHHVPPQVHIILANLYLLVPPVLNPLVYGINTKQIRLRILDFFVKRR
Summary of the method: as §1

UniProt Q8VGY6 = biological target: T16, UniProt Q8VGY6
T16 sequence (whole entry): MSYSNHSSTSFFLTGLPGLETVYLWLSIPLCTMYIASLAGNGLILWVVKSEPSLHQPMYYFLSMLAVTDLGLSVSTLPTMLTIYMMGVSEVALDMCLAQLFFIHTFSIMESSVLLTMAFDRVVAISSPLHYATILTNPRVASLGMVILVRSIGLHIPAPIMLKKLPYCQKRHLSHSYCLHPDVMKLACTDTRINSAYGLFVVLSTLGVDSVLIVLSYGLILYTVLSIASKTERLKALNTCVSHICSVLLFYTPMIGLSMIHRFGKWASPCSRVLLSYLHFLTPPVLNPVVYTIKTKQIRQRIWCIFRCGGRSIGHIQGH
Summary of the method: as §1

UniProt Q8VH10 = biological target: T17, UniProt Q8VH10
T17 sequence (whole entry): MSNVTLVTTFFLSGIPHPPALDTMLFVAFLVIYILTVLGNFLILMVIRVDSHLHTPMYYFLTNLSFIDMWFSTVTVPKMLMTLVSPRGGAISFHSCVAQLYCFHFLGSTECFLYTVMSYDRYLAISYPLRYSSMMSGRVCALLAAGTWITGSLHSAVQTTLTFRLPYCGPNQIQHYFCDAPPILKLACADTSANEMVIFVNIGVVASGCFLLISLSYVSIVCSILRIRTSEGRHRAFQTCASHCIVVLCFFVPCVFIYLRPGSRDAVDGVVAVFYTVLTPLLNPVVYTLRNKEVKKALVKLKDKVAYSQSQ
Summary of the method: as §1

UniProt Q924X8 = biological target: UniProt Q924X8
Summary of the method: as §1

Measured: odorant receptor agonist call;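 also: active if original authors judged signal statistically different from baseline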

O=C1CCCCCCCCCCCCCCO1
inactive: UniProt Q8VGU3 | UniProt Q8VGV7 | UniProt Q8VGX3 | UniProt Q8VGX5 | UniProt Q8VGZ2 | UniProt Q8VGZ7 | UniProt Q8VH16 | UniProt Q8VH20 | UniProt Q8VH21 | UniProt Q924H8

CCCCCOC(C)=O
not listed: UniProt Q8VGT4 | UniProt Q8VGV1 | UniProt Q8VGX8 | UniProt Q8VGY6 | UniProt Q8VH10 | UniProt Q924X8
inactive: all other assays above

COC(=O)c1ccccc1O
inactive: UniProt Q8VGU3 | UniProt Q8VGV7 | UniProt Q8VGX3 | UniProt Q8VGX5 | UniProt Q8VGZ2 | UniProt Q8VGZ7 | UniProt Q8VH16 | UniProt Q8VH20 | UniProt Q8VH21 | UniProt Q924H8

CCCCCC(=O)O
not listed: UniProt Q8VH18
inactive: all other assays above
